Results as given in article PMC12745170.
No constants are given. Whether binding was seen depends on the method and setting. In cells and extracts the contact can be indirect. Some results given as binding are weak or reduced against the parent protein; the word gives no strength. For some of these results: Where a sequence is shown, tags or fusion partners need not be part of it. Each block holds one molecule with its values, some of them ahead of it.

Protein sequences, listed by entry. Tags and fused reporters are not part of them.
UniProt Q6NUQ1: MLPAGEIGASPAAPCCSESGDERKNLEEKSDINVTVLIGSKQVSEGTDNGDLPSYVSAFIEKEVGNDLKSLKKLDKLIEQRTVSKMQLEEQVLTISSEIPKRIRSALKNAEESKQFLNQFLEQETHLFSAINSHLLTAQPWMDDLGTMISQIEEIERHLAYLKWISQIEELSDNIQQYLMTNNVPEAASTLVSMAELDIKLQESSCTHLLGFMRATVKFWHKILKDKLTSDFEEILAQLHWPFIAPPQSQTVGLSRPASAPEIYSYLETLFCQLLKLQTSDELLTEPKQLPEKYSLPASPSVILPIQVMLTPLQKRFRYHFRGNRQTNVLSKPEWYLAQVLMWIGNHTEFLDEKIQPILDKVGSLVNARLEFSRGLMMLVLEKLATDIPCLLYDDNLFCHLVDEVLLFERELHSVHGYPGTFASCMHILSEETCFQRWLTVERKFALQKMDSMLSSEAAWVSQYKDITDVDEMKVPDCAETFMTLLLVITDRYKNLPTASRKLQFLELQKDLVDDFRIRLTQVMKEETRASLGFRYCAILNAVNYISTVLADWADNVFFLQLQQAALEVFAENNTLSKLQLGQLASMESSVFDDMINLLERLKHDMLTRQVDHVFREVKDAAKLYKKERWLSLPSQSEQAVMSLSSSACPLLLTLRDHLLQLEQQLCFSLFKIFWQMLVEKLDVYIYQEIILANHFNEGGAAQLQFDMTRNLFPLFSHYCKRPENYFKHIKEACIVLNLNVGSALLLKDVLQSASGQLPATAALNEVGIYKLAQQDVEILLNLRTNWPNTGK

How the values were obtained:
[1] = target: T1, GST-tagged RNF39 fusion protein (human) (UniProt Q9H2S5); test: pull-down; bacterially purified GST-RNF39 or GST alone with whole-cell lysates of Flag-RINT1-overexpressing cells; only the target purified
T1 sequence: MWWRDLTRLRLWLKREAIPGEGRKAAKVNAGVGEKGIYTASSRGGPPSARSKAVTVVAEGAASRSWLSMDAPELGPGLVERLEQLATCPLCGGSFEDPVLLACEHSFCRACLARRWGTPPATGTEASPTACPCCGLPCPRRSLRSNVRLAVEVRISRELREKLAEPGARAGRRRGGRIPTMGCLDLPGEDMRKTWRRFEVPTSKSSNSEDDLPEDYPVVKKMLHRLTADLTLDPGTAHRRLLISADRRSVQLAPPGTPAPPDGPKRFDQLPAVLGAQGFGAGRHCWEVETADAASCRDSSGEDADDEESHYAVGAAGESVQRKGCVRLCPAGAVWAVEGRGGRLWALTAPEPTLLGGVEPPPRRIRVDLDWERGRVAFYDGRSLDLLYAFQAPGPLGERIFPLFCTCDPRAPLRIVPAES

[2] = target: T2, Ring Finger Protein 39 (RNF39), endogenous in COAD cells (human (endogenous in COAD cells)) (UniProt Q9H2S5); test: co-IP; endogenous proteins; COAD cells pretreated with MG132 (10 µM, 4 h); RIPA lysates; IP with anti-RNF39 or anti-RINT1 antibody, IgG as control, immunoblotting
T2 sequence: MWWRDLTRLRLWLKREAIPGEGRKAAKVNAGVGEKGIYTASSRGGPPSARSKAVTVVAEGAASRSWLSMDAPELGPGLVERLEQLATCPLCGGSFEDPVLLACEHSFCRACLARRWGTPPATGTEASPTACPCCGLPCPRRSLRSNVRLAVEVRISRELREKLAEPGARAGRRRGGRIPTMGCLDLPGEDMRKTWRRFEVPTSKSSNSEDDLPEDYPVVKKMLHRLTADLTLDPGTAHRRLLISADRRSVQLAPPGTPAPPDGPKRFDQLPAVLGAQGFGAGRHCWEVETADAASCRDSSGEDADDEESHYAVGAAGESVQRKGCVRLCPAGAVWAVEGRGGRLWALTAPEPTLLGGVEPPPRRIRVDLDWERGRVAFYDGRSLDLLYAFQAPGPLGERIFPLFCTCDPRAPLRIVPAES

[3] = target: RAD50-interacting protein 1 (RINT1), endogenous in COAD cells (human (endogenous in COAD cells)) (UniProt Q6NUQ1); test: as above
[4] = target: Flag-tagged RINT1, construct Full (human) (UniProt Q6NUQ1); test: co-IP; 293T cells transfected with Flag-tagged RINT1 deletion constructs (Full, C, N) for 36 h; lysates immunoprecipitated with anti-Flag resin, immunoblotting

binding [1]: binds
Molecule: Flag-RINT1 from whole-cell lysates of Flag-RINT1-overexpressing cells (from UniProt Q6NUQ1 1-792)

binding [2]: binds
Molecule: RAD50-interacting protein 1 (RINT1), endogenous in COAD cells (from UniProt Q6NUQ1 1-792)

binding [3]: binds
B1: Ring Finger Protein 39 (RNF39), endogenous in COAD cells (protein, UniProt Q9H2S5 1-420)
chain: MWWRDLTRLRLWLKREAIPGEGRKAAKVNAGVGEKGIYTASSRGGPPSARSKAVTVVAEGAASRSWLSMDAPELGPGLVERLEQLATCPLCGGSFEDPVLLACEHSFCRACLARRWGTPPATGTEASPTACPCCGLPCPRRSLRSNVRLAVEVRISRELREKLAEPGARAGRRRGGRIPTMGCLDLPGEDMRKTWRRFEVPTSKSSNSEDDLPEDYPVVKKMLHRLTADLTLDPGTAHRRLLISADRRSVQLAPPGTPAPPDGPKRFDQLPAVLGAQGFGAGRHCWEVETADAASCRDSSGEDADDEESHYAVGAAGESVQRKGCVRLCPAGAVWAVEGRGGRLWALTAPEPTLLGGVEPPPRRIRVDLDWERGRVAFYDGRSLDLLYAFQAPGPLGERIFPLFCTCDPRAPLRIVPAES

binding [4]: binds
B2: RNF39 in 293T cell lysate (co-IP with Flag-RINT1 constructs) (protein, UniProt Q9H2S5 1-420)
chain: MWWRDLTRLRLWLKREAIPGEGRKAAKVNAGVGEKGIYTASSRGGPPSARSKAVTVVAEGAASRSWLSMDAPELGPGLVERLEQLATCPLCGGSFEDPVLLACEHSFCRACLARRWGTPPATGTEASPTACPCCGLPCPRRSLRSNVRLAVEVRISRELREKLAEPGARAGRRRGGRIPTMGCLDLPGEDMRKTWRRFEVPTSKSSNSEDDLPEDYPVVKKMLHRLTADLTLDPGTAHRRLLISADRRSVQLAPPGTPAPPDGPKRFDQLPAVLGAQGFGAGRHCWEVETADAASCRDSSGEDADDEESHYAVGAAGESVQRKGCVRLCPAGAVWAVEGRGGRLWALTAPEPTLLGGVEPPPRRIRVDLDWERGRVAFYDGRSLDLLYAFQAPGPLGERIFPLFCTCDPRAPLRIVPAES
